Experimental data as given in US20110021746A1 (published 2011).
Results are given in words; binding and its absence hold for the method and conditions named. Some entries that bind do so weakly or less than the wild type.

Protein sequences, listed by entry. Tags and fused reporters are not part of them. Residues count along the entry.
UniProt P35968, residues 20-764: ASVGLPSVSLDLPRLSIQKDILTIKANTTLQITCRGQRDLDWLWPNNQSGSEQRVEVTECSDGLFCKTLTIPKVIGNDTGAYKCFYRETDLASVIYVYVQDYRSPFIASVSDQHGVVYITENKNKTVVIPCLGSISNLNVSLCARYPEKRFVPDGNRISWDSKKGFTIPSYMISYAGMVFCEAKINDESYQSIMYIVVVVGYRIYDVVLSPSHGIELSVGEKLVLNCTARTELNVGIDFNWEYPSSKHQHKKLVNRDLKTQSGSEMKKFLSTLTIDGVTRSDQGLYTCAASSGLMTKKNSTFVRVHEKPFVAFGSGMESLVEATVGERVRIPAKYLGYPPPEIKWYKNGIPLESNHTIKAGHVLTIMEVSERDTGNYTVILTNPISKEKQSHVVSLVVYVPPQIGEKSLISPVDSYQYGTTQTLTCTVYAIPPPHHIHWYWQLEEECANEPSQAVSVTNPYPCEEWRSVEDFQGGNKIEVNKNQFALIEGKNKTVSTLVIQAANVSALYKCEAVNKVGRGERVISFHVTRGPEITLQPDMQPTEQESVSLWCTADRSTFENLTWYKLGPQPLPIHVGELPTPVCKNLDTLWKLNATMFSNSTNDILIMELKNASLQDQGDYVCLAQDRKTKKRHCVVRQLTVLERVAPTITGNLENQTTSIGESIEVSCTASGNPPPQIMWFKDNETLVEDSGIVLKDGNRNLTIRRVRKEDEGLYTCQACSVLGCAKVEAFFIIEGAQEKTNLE

B1: SEQ ID NO 250 (designed binder)
chain: NVSPPRRARVTDATETTITIRWELPIKASSIIPSFQVDAVPANGQTPIQRTIQADVSTYTITGLQPGTDYKIYLYTLNDNARSSPVVIDAST
B2: SEQ ID NO 251 (designed binder)
chain: NVSPPRRARVTDATETTITIRWNTPENDGGGTVPGFQVDAVPANGQTPIQRTINADVSTYTITGLQPGTDYKIYLYTLNDNARSSPVVIDAST
B3: SEQ ID NO 252 (designed binder)
chain: NVSPPRRARVTDATETTITIRWTLGDQVSSAIPGFQVDAVPANGQTPIQRTINADVSTYTITGLQPGTDYKIYLYTLNDNARSSPVVIDAST
B4: SEQ ID NO 253 (designed binder)
chain: NVSPPRRARVTDATETTITIRWRTPADNGGGGIPSFQVDAVPVNGQTPIQRTINADISTYTITGLQPGTDYKIYLYTLNDNARSSPVVIDAST
B5: SEQ ID NO 254 (designed binder)
chain: NVSPPRRARVTDATETTITIRWERAAGEFAGFQVDAVPANGQTPIQRTIHADTNIYTITGLQPGTDYKIYLYTLNDNARSSPVVIDAST
B6: SEQ ID NO 255 (designed binder)
chain: NVSPPRRARVTDATETTITIRWRTPIDAGGGQVPSFQVDAVPANGQTPIQRTINADVSTYTITGLQPGTDYKIYLYTLNDNARSSPVVIDAST
B7: SEQ ID NO 256 (designed binder)
chain: NVSPPRRARVTDATETTITIRWKLPIGRGSEIPGFQVDAVPANGQTPIQRTINADVSTYTITGLQPGTDYKIYLYTLNDNARSSPVVIDAST
B8: SEQ ID NO 257 (designed binder)
chain: NVSPPRRARVTDATETTITIRWALGVDASSVIPGFQVDAVPANGQTPIQRTINADVSTYTITGLQPGTDYKIYLYTLNDNARSSPVVIDAST
B9: SEQ ID NO 258 (designed binder)
chain: NVSPPRRARVTDATETTITIRWQLPIKASSEVPGFQVDAVPANGQTPIQRTINADVSTYTITGLQPGTDYKIYLYTLNDNARSSPVVIDAST
B10: SEQ ID NO 259 (designed binder)
chain: NVSPPRRARVTDATETTITIRWKVPIQRDSIVPGFQVDAVPANGQTPIQRTINADTSTYTITGLQPGTDYKIYLYTLNDNARSSPVVIDAST
B11: SEQ ID NO 260 (designed binder)
chain: NVSPPRRARVTDATETTITIRWQVGVDADSPIPSFQVDAVPANGQTPIQRTIHADISTYTITGLQPGTDYKIYLYTLNDNARSSPVVIDAST
B12: SEQ ID NO 261 (designed binder)
chain: NVSPPRRARVTDATETTITIRWKLPIKPNSTIPSFQVDAVPANGQTPIQRTIHADVSTYTITGLQPGTDYKIYLYTLNDNARSSPVVIDAST
B13: SEQ ID NO 262 (designed binder)
chain: NVSPPRRARVTDATETTITIRWQQPIRASGELPGFQVDAVPANGQTPIQRTINADTNIYTITGLQPGTDYKIYLYTLNDNARSSPVVIDAST
B14: SEQ ID NO 263 (designed binder)
chain: NVSPPRRARVTDATETTITIRWTVPVHRDSEIISFQVDAVPANGQTPIQRTINATTNVYTITGLQPGTDYKIYLYTLNDNARSSPVVIDAST
B15: SEQ ID NO 264 (designed binder)
chain: NVSPPRRARVTDATETTITIRWERAPGEVDGFQVDAVPANGQTPIQRTINADTNIYTITGLQPGTDYKIYLYTLNDNARSSPVVIDAST
B16: SEQ ID NO 265 (designed binder)
chain: NVSPPRRARVTDATETTITIRWETPEYNGGTAIPGFQVDAVPANGQTPIQRTINADISTYTITGLQPGTDYKIYLYTLNDNARSSPVVIDAST
B17: SEQ ID NO 266 (designed binder)
chain: NVSPPRRARVTDATETTITIRWAVSQSAFDSFQVDAVPANGQTPIQRTIHATTSTYTITGLQPGTDYKIYLYTLNDNARSSPVVIDAST
B18: SEQ ID NO 267 (designed binder)
chain: NVSPPRRARVTDATETTITIRWELPIEASGLVPGFQVDAVPANGQTPIQRTINADTSTYTITGLQPGTDYKIYLYTLNDNARSSPVVIDAST
B19: SEQ ID NO 268 (designed binder)
chain: NVSPPRRARVTDATETTITIRWGAPELDGGSGIPSFQVDAVPANGQTPIQRTINADISTYTITGLQPGTDYKIYLYTLNDNARSSPVVIDAST
B20: SEQ ID NO 269 (designed binder)
chain: NVSPPRSARVTDATETTITIRWDTPGDAGGSGIPSFQVDAVPANGQTPIQRTINADVSTYTITGLQPGTDYKIYLYTLNDNARSSPVVIDAST
B21: 1637102_VGR2F11 (designed binder)
chain: NVSPPRRARVTDATETTITIRWTRAAGEVDGFQVDAVPANGQTPIQRTINADTNTYTITGLQPGTDYKIYLYTLNDNARSSPVVIDAST
B22: SEQ ID NO 271 (designed binder)
chain: NVSPPRRARVTDATETTITIRWGQPRYNGGSTVPSFQVDAVPANGQTPIQRTINADISTYTITGLQPGTDYKIYLYTLNDNARSSPVVIDAST
B23: SEQ ID NO 272 (designed binder)
chain: NVSPPRSARVTDATETTITIRWTRARSEVIGFQVDAVPANGQTPIQRTINADTNIYTITGLQPGTDYKIYLYTLNDNARSSPVVIDAST
B24: 1637103_VGR2H03 (designed binder)
chain: NVSPPRRARVTDATETTITIRWRVAGSEFDSFQVDAVPANGQTPIQRTIHAATTTYTITGLQPGTDYKIYLYTLNDNARSSPVVIDAST
B25: 1637103_VGR2E12 (designed binder)
chain: NVSPPRRARVTDATETTITIRWKVAGGTFDSFQVDAVPANGQTPIQRTINAATTTYTITGLQPGTDYKIYLYTLNDNARSSPVVIDAST
B26: 1637103_VGR2F12 (designed binder)
chain: NVSPPRHARVTDATETTITIRWRVAGSEFDSFQVDAVPANGQTPIQRTIHAATTTYTITGLQPGTDYKIYLYTLNDNARSSPVVIDAST
B27: SEQ ID NO 276 (designed binder)
chain: NVSPPRHARVTDATETTITIRWKVAGGTFDSFQVDAVPANGQTPIQRTINAATTTYTITGLQPGTDYKIYLYTLNDNARSSPVVIDAST
B28: SEQ ID NO 277 (designed binder)
chain: NVSPPRRARVTDATETTITIRWKVAGSEFDSFQVDAVPANGQTPIQRTIHAATTTYTITGLQPGTDYKIYLYTLNDNARSSPVVIDAST
B29: SEQ ID NO 278 (designed binder)
chain: NVSPPRCARVTDATETTITIRWRVAGSEFDSFQVDAVPANGQTPIQRTIHAATTTYTITGLQPGTDYKIYLYTLNDNARSSPVVIDAST
B30: SEQ ID NO 279 (designed binder)
chain: NVSPPRHARVTDATETTITIRWTVAESTFDSFQVDAVPANGQTPIQRTIHAATTTYTITGLQPGTDYKIYLYTLNDNARSSPVVIDAST
B31: SEQ ID NO 280 (designed binder)
chain: NVSPPRSARVTDATETTITIRWKVAGGTFDSFQVDAVPANGQTPIQRTINAATTTYTITGLQPGTDYKIYLYTLNDNARSSPVVIDAST
B32: SEQ ID NO 282 (designed binder)
chain: NVSPPRRARVTDATETTITIRWRVAGSEFDSFQVDAVPANGQTPIQRTIHAATTTYTITGLQPGTYYKIYLYTLNDNARSSPVVIDAST
B33: SEQ ID NO 283 (designed binder)
chain: NVSPPRRARVTDATETTITIRWAVAGSEFDSFQVDAVPANGQTPIQRTIHAATTTYTITGLQPGTDYKIYLYTLNDNARSSPVVIDAST
B34: SEQ ID NO 287 (designed binder)
chain: NVSPPRRARVTDATETTITIRWERARSEVDGFQVDAVPANGQTPIQRTINADTNVYTITGLQPGTDYKIYLYTLNDNARSSPVVIDAST
B35: SEQ ID NO 288 (designed binder)
chain: NVSPPRRARVTDATETTITISWRLPAGAVAGFQVDAVPANGQTPIQRTIKPDVRSYTITGLQPGTDYKIYLYTLTRGRGGSSPVVIDAST
B36: SEQ ID NO 289 (designed binder)
chain: NVSPPRSARVTDATETTITIRWTRAAGEVDGFQVDAVPANGQTPIQRTINADTNTYTITGLQPGTDYKIYLYTLNDNARSSPVVIDAST
B37: SEQ ID NO 290 (designed binder)
chain: NVSPPRHARVTDATETTITIRWTVSASEFDSFQVDAVPANGQTPIQRTIHATTTTYTITGLQPGTDYKIYLYTLNDNARSSPVVIDAST
B38: SEQ ID NO 291 (designed binder)
chain: NVSPPRCARVTDATETTITIRWTRAAGEVDGFQVDAVPANGQTPIQRTINADTNTYTITGLQPGTDYKIYLYTLNDNARSSPVVIDAST
B39: SEQ ID NO 292 (designed binder)
chain: NVSPPRRARVTDATETTITIRWKVAGGEFDSFQVDAVPANGQTPIQRTIHAATTTYTITGLQPGTDYKIYLYTLNDNARSSPVVIDAST
B40: SEQ ID NO 293 (designed binder)
chain: NVSPPRRARVTDATETTITIRWARAPGPFDGFQVDAVPANGQTPIQRTINADTNIYTITGLQPGTDYKIYLYTFNDNARSSPVVIDAST

Target: VEGFR2 (UniProt P35968)
Experiment: phage display selection

| binding | Binder |
| --- | --- |
| binds | B1 |
| binds | B2 |
| binds | B3 |
| binds | B4 |
| binds | B5 |
| binds | B6 |
| binds | B7 |
| binds | B8 |
| binds | B9 |
| binds | B10 |
| binds | B11 |
| binds | B12 |
| binds | B13 |
| binds | B14 |
| binds | B15 |
| binds | B16 |
| binds | B17 |
| binds | B18 |
| binds | B19 |
| binds | B20 |

| binding | Binder |
| --- | --- |
| binds | B21 |
| binds | B22 |
| binds | B23 |
| binds | B24 |
| binds | B25 |
| binds | B26 |
| binds | B27 |
| binds | B28 |
| binds | B29 |
| binds | B30 |
| binds | B31 |
| binds | B32 |
| binds | B33 |
| binds | B34 |
| binds | B35 |
| binds | B36 |
| binds | B37 |
| binds | B38 |
| binds | B39 |
| binds | B40 |
